Measurements taken from article doi:10.1101/2021.11.14.468520v1, “Exploring the kinetic selectivity of antipsychotics for dopamine D2 and 5-HT2A receptors: implications for the prevalence of EPS and receptor occupancy” (biorxiv, 2021).

Sequences of proteins named here, by UniProt entry; tags and fusion partners are left off.
UniProt P28223, whole entry: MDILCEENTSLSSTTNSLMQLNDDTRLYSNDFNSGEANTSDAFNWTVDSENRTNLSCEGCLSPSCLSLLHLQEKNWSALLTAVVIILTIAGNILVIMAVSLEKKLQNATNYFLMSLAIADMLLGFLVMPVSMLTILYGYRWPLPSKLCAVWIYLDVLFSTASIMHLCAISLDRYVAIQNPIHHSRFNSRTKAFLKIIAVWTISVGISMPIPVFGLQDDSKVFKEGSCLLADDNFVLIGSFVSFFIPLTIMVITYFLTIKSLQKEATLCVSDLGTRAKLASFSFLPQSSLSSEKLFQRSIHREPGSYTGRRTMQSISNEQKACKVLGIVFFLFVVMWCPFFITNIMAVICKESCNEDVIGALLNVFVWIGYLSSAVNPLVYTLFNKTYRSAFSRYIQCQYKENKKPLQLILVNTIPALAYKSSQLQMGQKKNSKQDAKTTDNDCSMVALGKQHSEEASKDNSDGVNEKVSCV

Target: T1, human 5-HT2A receptor (5-HT2AR) (Homo sapiens, UniProt P28223)
T1 construct: gene HTR2A; SNAP-tagged (SNAP-Lumi4-Tb labelled) receptor transiently expressed in CHO-K1 cells; membranes; plasmid from CisBio
Assay: TR-FRET equilibrium competition binding
Description: TR-FRET equilibrium competition binding on human 5-HT2A receptor (5-HT2AR)

## COc1cc(C(C)=O)ccc1OCCCN1CCC(c2noc3cc(F)ccc23)CC1 [Iloperidone]
  Ki: 0.479 nM
